These are yes or no findings as the source states them, for the method shown. In cells and extracts the contact can be indirect. Some binding calls cover weakened binding; strength is not graded here. For part of these data: Tags and fused reporters may be left off the sequences shown.
How the values were obtained:
[1] = target: T1, endogenous midkine (MDK) (human (endogenous in MDA-MB-231)) (UniProt P21741); test: co-IP; endogenous proteins from MDA-MB-231 cells; anti-MDK antibody used for capture; endogenous USP12 and MDK examined by immunoblotting
T1 sequence: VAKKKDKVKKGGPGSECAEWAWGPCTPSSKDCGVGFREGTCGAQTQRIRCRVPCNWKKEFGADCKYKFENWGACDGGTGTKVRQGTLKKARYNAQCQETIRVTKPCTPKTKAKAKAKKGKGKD

Amino acid sequences for entries named in this document (tags omitted).
UniProt O75317: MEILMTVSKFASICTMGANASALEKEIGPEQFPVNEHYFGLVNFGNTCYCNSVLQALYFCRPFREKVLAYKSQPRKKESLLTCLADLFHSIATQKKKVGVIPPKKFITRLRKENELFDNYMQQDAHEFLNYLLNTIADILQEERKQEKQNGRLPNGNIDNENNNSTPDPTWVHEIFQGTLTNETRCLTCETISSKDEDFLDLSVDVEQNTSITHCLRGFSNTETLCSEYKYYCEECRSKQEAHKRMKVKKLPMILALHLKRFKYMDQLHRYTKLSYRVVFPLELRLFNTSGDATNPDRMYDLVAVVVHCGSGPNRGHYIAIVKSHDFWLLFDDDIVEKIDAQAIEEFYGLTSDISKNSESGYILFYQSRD

midkine (MDK)-GST = target: T2, midkine (MDK)-GST (UniProt P21741); test: pull-down; USP12-Flag and MDK-GST co-transfected into HEK293T cells; MDK-GST pulled down with glutathione-Sepharose 4B slurry beads; immunoblotting
T2 sequence: T1 sequence

[2] = target: ubiquitin-specific protease 12 (USP12)-Flag (UniProt O75317); test: co-IP; USP12-Flag and MDK-GST co-transfected into HEK293T cells for 48 h; lysate incubated with anti-Flag M2 affinity gel overnight at 4 °C; beads washed with PBS three times; western blot

Molecule: endogenous USP12 (from UniProt O75317 1-370) (enzyme)
- binding [1]: binds

Molecule: ubiquitin-specific protease 12 (USP12)-Flag (from UniProt O75317 1-370) (enzyme)
- binding (midkine (MDK)-GST): binds

B1: midkine (MDK)-GST (protein, UniProt P21741 21-143)
chain: T1 sequence
- binding [2]: binds

Reference: article PMC8580968
